# Results reported in publication PMC3498211.
# No constants are given. Whether binding was seen depends on the method and setting. Binding seen in cells or lysates may run through a third protein. Some entries that bind do so weakly or less than the wild type. Where a sequence is shown, tags or fusion partners need not be part of it.
# T1: SREBP cleavage-activating protein (SCAP) (UniProt P97260)
# T1 sequence: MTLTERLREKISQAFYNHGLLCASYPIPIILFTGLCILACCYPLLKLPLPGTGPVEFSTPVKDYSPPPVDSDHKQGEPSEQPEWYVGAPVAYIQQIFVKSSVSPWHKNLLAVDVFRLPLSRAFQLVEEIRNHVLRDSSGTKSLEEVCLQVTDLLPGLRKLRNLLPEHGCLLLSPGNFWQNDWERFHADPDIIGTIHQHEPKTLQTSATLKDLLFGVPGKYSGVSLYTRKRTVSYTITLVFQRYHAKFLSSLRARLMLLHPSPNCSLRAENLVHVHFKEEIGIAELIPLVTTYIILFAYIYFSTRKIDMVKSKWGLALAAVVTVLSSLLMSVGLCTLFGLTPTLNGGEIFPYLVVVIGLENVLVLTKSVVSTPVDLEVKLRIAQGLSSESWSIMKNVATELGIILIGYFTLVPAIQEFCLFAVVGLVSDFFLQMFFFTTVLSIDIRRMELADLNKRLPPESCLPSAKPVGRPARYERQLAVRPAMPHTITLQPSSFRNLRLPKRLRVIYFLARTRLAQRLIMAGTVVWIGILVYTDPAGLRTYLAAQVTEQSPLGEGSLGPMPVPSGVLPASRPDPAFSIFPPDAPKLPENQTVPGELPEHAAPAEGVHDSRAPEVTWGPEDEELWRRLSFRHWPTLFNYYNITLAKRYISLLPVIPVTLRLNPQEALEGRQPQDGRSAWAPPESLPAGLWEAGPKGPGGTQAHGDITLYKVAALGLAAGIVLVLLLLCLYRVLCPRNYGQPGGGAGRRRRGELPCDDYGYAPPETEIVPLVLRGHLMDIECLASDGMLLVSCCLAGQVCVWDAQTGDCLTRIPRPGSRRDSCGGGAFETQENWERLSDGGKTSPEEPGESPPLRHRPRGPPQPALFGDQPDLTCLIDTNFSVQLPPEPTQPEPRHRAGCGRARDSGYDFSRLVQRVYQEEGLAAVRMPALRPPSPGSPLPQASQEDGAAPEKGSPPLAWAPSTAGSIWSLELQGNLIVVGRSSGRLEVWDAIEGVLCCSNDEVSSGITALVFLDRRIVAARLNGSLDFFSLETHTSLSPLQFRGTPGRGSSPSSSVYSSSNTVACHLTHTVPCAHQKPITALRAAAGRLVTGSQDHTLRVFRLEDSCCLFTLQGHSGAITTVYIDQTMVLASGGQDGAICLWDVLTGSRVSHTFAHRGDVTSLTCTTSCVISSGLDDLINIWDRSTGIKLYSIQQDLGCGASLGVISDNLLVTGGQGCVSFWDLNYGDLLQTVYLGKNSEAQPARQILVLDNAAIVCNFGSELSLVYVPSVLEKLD
# T2: GST-tagged rat full-length ACBD3 (acyl-CoA binding domain containing 3) (rat) (UniProt Q7TNY6)
# T2 sequence: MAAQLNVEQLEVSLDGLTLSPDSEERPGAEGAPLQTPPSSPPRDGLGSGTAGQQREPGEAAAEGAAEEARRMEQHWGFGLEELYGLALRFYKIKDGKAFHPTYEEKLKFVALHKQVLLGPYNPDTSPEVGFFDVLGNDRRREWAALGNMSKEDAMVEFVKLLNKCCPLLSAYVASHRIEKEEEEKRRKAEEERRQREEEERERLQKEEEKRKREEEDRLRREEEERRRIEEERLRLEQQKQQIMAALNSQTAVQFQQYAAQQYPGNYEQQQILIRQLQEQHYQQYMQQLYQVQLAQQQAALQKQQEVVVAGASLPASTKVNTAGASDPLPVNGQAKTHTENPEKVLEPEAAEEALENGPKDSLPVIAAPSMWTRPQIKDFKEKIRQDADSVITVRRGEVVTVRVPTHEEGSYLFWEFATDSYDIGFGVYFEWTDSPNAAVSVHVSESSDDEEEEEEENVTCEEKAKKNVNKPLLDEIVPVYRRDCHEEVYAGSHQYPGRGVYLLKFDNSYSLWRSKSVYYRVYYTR
# Tests used:
# [1] = biological target: T1, SREBP cleavage-activating protein (SCAP); test: co-IP; GST-ACBD3, Myc-hSREBP1 (full length) and SCAP co-expressed in HEK293T, 48 or 72 hr; lysis in Buffer B (50 mM HEPES-KOH pH 7.4, 100 mM NaCl, 1.5 mM MgCl2, 0.1% NP-40); anti-SCAP antibody overnight at 4 C, TrueBlot anti-rabbit IP beads; immunoblot; with or without GST-ACBD3
# [2] = biological target: T2, GST-tagged rat full-length ACBD3 (acyl-CoA binding domain containing 3) (rat); test: pull-down; GST-ACBD3 expressed in HEK293T alone or with Myc-hSREBP1A (full length or 1-490), 48 hr; lysis in Buffer A (100 mM Tris pH 7.4, 150 mM NaCl, 1% Triton X-100, 15% glycerol); 400 ug lysate protein on Glutathione 4B sepharose beads overnight at 4 C; immunoblot (the paper calls it immunoprecipitation)
binding [1],binding [2],Binder
binds,,"Insulin induced gene 1 protein (Insig1) (protein, UniProt O15503 1-277) MPRLHDHFWSCSCAHSARRRGPPRASAAGLAAKVGEMINVSVSGPSLLAAHGAPDADPAPRGRSAAMSGPEPGSPYPNTWHHRLLQRSLVLFSVGVVLALVLNLLQIQRNVTLFPEEVIATIFSSAWWVPPCCGTAAAVVGLLYPCIDSHLGEPHKFKREWASVMRCIAVFVGINHASAKLDFANNVQLSLTLAALSLGLWWTFDRSRSGLGLGITIAFLATLITQFLVYNGVYQYTSPDFLYIRSWLPCIFFSGGVTVGNIGRQLAMGVPEKPHSD"
,no binding,"Myc-tagged human SREBP1A nuclear mature form (1-490) (domain or fragment, UniProt P36956-1 1-490) MDEPPFSEAALEQALGEPCDLDAALLTDIEDMLQLINNQDSDFPGLFDPPYAGSGAGGTDPASPDTSSPGSLSPPPATLSSSLEAFLSGPQAAPSPLSPPQPAPTPLKMYPSMPAFSPGPGIKEESVPLSILQTPTPQPLPGALLPQSFPAPAPPQFSSTPVLGYPSPPGGFSTGSPPGNTQQPLPGLPLASPPGVPPVSLHTQVQSVVPQQLLTVTAAPTAAPVTTTVTSQIQQVPVLLQPHFIKADSLLLTAMKTDGATVKAAGLSPLVSGTTVQTGPLPTLVSGGTILATVPLVVDAEKLPINRLAAGSKAPASAQSRGEKRTAHNAIEKRYRSSINDKIIELKDLVVGTEAKLNKSAVLRKAIDYIRFLQHSNQKLKQENLSLRTAVHKSKSLKDLVSACGSGGNTDVLMEGVKTEVEDTLTPPPSDAGSPFQSSPLSLGSRGSGSGGSGSDSEPDSPVFEDSKAKPEQRPSLHSRGMLDRSRLAL"
binds,binds,"Myc-tagged human SREBP1A full length (1-1147) (protein, UniProt P36956-1 1-1147) MDEPPFSEAALEQALGEPCDLDAALLTDIEDMLQLINNQDSDFPGLFDPPYAGSGAGGTDPASPDTSSPGSLSPPPATLSSSLEAFLSGPQAAPSPLSPPQPAPTPLKMYPSMPAFSPGPGIKEESVPLSILQTPTPQPLPGALLPQSFPAPAPPQFSSTPVLGYPSPPGGFSTGSPPGNTQQPLPGLPLASPPGVPPVSLHTQVQSVVPQQLLTVTAAPTAAPVTTTVTSQIQQVPVLLQPHFIKADSLLLTAMKTDGATVKAAGLSPLVSGTTVQTGPLPTLVSGGTILATVPLVVDAEKLPINRLAAGSKAPASAQSRGEKRTAHNAIEKRYRSSINDKIIELKDLVVGTEAKLNKSAVLRKAIDYIRFLQHSNQKLKQENLSLRTAVHKSKSLKDLVSACGSGGNTDVLMEGVKTEVEDTLTPPPSDAGSPFQSSPLSLGSRGSGSGGSGSDSEPDSPVFEDSKAKPEQRPSLHSRGMLDRSRLALCTLVFLCLSCNPLASLLGARGLPSPSDTTSVYHSPGRNVLGTESRDGPGWAQWLLPPVVWLLNGLLVLVSLVLLFVYGEPVTRPHSGPAVYFWRHRKQADLDLARGDFAQAAQQLWLALRALGRPLPTSHLDLACSLLWNLIRHLLQRLWVGRWLAGRAGGLQQDCALRVDASASARDAALVYHKLHQLHTMGKHTGGHLTATNLALSALNLAECAGDAVSVATLAEIYVAAALRVKTSLPRALHFLTRFFLSSARQACLAQSGSVPPAMQWLCHPVGHRFFVDGDWSVLSTPWESLYSLAGNPVDPLAQVTQLFREHLLERALNCVTQPNPSPGSADGDKEFSDALGYLQLLNSCSDAAGAPAYSFSISSSMATTTGVDPVAKWWASLTAVVIHWLRRDEEAAERLCPLVEHLPRVLQESERPLPRAALHSFKAARALLGCAKAESGPASLTICEKASGYLQDSLATTPASSSIDKAVQLFLCDLLLVVRTSLWRQQQPPAPAPAAQGTSSRPQASALELRGFQRDLSSLRRLAQSFRPAMRRVFLHEATARLMAGASPTRTHQLLDRSLRRRAGPGGKGGAVAELEPRPTRREHAEALLLASCYLPPGFLSAPGQRVGMLAEAARTLEKLGDRRLLHDCQQMLMRLGGGTTVTSS"
